The other results are listed elsewhere or left out.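 The calls were made as follows: active = dose-dependent thermal stabilisation significant by F-test of dose-response against flat model at 10% FDR; inactive = not significant.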
compound: Nc1nc2c(ncn2[C@@H]2O[C@H](COP(=O)(O)OP(=O)(O)OP(=O)(O)O)[C@@H](O)[C@H]2O)c(=O)[nH]1; assay: dose-dependent thermal stabilisation call (2D-TPP, DLPTP, 10% FDR) (binary (1 = stabilised)); higher = stabilised by the compound; settings: system: Jurkat gel-filtered lysate; concentration range 1-500 µM
Protocol: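 2D thermal proteome profiling in gel-filtered Jurkat E6.1 lysate (2 mg/ml) treated with NaGTP (0, 1, 10, 100, 500 uM) for 10 min at room temperature, then heated 3 min at one of 12 temperatures (42-63.9 C). Soluble protein was quantified by TMT10 MS. The value is the DLPTP call of the paper: dose-dependent thermal stabilisation over all temperatures at 10% FDR (F-test of a dose-response against a flat model); one experiment, one call per tested protein.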

The chains behind the UniProt entries cited, without tags or fusion partners. Where a name states a change or a piece, a line headed by the entry shows the natural chain unless it says otherwise.
UniProt Q96S44: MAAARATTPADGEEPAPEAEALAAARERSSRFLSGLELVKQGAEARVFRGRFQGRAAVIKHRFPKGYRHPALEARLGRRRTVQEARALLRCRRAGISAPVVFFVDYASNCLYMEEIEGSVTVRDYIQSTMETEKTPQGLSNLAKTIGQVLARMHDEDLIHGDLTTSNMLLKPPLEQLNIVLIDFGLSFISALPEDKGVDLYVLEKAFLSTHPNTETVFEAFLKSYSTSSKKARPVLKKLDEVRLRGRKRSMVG
UniProt P62995: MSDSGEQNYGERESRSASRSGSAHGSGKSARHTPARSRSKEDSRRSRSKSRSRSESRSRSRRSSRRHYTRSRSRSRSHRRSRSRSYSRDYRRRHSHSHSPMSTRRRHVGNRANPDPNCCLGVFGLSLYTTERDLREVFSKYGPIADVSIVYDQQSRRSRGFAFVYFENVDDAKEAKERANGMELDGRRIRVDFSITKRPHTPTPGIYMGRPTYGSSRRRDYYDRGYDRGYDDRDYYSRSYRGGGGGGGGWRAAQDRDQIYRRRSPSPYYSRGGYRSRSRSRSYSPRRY
UniProt Q9UJK0: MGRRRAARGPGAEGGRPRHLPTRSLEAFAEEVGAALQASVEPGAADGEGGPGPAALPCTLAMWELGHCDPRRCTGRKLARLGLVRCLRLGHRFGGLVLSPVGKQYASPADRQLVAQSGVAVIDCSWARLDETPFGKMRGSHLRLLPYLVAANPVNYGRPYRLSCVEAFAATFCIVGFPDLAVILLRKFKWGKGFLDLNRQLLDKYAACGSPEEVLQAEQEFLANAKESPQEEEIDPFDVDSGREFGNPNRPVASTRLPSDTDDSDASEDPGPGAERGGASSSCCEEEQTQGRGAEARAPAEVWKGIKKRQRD
UniProt Q8IYQ7: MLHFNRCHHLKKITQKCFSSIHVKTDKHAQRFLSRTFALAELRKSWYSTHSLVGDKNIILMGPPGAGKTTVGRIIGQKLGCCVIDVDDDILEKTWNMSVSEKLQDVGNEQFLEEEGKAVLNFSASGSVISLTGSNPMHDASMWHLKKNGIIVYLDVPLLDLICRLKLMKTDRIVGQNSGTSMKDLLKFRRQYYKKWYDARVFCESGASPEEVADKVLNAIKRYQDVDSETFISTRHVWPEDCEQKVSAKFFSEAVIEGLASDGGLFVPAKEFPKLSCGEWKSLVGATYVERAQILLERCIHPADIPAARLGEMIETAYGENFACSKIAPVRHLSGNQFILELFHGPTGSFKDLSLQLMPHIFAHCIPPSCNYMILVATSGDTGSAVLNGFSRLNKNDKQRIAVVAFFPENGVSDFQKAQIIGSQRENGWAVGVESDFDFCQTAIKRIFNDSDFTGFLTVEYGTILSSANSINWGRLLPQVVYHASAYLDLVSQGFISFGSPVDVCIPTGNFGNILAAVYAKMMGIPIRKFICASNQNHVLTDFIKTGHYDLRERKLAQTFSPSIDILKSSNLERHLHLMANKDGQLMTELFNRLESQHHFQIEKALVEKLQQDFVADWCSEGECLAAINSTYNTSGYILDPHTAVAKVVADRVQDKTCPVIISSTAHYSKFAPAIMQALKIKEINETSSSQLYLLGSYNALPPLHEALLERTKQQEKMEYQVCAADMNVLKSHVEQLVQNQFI
UniProt P40222: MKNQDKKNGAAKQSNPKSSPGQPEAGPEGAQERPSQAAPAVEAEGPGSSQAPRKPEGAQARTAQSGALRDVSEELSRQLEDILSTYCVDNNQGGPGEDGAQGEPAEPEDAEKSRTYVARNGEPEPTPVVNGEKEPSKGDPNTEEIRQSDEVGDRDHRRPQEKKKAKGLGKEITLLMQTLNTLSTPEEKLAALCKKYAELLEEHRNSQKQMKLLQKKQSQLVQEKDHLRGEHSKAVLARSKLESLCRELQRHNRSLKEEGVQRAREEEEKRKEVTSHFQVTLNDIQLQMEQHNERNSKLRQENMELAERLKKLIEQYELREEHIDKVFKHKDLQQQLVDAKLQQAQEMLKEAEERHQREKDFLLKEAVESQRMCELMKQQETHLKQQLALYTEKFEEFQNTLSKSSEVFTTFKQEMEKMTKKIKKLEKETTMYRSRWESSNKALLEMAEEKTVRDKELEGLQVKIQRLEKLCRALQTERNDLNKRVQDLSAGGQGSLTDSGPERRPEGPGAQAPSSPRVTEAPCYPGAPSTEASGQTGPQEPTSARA
UniProt O75347: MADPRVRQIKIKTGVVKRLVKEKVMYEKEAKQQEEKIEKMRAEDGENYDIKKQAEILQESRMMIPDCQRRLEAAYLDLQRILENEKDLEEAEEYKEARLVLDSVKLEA
UniProt Q6PL24: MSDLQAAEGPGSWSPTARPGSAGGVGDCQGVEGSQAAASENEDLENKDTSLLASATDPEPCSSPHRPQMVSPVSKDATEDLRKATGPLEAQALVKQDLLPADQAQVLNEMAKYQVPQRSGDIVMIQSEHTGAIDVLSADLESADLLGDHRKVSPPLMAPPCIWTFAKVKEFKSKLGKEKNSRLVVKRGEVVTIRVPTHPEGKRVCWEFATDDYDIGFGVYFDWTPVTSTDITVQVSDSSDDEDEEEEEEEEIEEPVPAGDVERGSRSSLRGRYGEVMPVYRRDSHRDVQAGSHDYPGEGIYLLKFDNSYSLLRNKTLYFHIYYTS
UniProt Q8IUR0, whole entry: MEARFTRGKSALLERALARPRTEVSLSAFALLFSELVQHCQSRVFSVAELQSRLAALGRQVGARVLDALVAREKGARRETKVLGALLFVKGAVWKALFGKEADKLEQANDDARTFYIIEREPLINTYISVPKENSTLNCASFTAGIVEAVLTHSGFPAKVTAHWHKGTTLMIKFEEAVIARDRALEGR
UniProt P67936, whole entry: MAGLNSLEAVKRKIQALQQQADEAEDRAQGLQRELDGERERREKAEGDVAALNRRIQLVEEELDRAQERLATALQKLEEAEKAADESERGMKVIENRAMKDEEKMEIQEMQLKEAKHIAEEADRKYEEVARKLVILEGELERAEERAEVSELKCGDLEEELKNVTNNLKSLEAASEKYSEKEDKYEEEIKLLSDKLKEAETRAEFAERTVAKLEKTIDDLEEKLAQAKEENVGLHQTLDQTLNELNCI
UniProt Q17R31: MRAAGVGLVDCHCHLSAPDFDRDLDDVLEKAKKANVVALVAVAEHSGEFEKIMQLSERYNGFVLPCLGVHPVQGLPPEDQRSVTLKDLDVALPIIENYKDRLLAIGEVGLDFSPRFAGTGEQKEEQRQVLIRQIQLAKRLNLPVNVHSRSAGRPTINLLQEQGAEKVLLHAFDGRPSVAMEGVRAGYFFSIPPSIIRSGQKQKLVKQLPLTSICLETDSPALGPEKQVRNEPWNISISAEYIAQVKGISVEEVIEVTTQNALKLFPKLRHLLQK
UniProt O75157: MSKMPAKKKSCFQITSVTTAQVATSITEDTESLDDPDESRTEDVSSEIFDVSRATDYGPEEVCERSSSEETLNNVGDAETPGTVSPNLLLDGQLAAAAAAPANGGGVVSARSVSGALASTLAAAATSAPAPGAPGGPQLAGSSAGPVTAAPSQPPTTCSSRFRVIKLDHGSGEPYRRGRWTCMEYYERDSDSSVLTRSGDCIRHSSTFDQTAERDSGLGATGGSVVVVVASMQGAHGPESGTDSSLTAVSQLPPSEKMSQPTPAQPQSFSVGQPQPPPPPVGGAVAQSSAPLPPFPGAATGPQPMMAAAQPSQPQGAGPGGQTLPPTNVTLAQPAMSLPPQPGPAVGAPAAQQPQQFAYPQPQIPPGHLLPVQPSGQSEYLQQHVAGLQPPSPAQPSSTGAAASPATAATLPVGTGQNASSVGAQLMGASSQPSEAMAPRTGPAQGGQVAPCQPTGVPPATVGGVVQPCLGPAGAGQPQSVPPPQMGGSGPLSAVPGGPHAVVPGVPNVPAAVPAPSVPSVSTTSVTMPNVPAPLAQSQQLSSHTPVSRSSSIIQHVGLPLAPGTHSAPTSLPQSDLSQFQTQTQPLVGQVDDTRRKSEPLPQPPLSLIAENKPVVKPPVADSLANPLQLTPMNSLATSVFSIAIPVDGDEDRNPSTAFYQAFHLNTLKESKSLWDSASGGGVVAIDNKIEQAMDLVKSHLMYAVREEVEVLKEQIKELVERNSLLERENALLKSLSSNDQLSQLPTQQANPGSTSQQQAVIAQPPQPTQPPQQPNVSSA
UniProt Q8NDV7: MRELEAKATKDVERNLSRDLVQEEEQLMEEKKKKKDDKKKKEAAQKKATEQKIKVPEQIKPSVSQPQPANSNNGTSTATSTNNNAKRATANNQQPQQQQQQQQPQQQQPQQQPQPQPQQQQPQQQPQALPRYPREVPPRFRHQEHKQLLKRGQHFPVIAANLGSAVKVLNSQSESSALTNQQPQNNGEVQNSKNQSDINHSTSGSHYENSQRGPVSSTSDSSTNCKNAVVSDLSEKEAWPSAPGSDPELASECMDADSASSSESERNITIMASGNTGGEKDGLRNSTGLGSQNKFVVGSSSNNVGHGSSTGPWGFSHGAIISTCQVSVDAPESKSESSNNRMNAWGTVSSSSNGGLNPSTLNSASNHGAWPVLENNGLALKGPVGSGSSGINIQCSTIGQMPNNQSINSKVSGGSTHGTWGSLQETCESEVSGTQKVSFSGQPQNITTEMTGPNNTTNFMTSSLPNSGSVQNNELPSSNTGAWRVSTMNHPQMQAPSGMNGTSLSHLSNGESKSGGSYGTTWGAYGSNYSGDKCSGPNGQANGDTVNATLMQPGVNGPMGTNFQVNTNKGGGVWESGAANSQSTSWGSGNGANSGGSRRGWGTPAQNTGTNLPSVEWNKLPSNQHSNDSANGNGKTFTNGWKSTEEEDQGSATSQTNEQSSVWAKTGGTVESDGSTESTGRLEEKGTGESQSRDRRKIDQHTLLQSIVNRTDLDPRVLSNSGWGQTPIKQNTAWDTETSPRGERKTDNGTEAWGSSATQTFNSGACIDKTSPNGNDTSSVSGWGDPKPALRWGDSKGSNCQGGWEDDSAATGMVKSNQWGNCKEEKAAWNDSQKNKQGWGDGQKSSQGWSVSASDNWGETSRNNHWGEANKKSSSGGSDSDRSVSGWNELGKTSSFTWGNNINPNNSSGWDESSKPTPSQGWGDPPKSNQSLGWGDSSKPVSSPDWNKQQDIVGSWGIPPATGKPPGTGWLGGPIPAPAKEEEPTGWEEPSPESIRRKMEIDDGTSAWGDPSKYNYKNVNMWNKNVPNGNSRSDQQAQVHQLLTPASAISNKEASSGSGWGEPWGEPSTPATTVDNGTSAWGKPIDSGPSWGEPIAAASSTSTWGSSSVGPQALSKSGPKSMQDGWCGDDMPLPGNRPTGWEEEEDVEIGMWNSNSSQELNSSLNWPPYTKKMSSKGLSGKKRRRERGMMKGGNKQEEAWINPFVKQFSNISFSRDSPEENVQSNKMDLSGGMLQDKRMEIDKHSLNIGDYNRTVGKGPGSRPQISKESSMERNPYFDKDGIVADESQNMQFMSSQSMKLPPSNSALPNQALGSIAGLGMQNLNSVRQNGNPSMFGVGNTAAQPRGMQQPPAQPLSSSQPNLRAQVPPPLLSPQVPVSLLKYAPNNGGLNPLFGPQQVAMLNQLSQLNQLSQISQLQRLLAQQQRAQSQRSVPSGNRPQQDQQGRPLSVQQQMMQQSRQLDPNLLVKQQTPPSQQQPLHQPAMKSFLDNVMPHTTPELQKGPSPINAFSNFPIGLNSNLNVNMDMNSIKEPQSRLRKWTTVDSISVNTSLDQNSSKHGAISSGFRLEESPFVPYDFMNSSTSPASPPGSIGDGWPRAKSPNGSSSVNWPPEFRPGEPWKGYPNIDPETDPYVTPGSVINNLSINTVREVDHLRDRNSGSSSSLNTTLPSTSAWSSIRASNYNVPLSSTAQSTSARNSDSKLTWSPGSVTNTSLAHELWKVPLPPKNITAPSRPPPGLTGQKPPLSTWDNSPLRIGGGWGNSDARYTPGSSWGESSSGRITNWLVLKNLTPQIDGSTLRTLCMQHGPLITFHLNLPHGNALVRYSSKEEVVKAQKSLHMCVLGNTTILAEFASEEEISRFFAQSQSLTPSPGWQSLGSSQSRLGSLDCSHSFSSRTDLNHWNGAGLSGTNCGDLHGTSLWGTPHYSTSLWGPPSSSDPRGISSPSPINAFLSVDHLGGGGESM
UniProt Q12933: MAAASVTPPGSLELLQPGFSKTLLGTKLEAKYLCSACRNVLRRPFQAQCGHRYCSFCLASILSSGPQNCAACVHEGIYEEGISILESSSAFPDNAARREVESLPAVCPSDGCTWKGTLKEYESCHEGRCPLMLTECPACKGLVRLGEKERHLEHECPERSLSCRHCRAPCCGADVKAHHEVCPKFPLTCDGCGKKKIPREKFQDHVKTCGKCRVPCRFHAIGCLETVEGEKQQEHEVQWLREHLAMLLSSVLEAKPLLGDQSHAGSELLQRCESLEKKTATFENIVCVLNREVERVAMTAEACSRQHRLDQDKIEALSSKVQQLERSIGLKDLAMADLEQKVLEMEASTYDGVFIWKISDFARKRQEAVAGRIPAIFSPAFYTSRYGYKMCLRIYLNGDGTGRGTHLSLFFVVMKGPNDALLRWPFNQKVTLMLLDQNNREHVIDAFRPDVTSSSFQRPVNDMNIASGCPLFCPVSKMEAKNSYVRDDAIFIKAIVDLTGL

dose-dependent thermal stabilisation call, active:
U2AF1L5 1
THOC1 (UniProt Q96FV9) 1
TTI2 (UniProt Q6NXR4) 1
TP53RK (UniProt Q96S44) 1
TRA2B (UniProt P62995) 1
TNPO1 (UniProt Q92973) 1
THRAP3 (UniProt Q9Y2W1) 1
TIGAR (UniProt Q9NQ88) 1

Pulled one by one from above (4):
dose-dependent thermal stabilisation call, active:
TNPO1 (UniProt Q92973) 1
TRA2B (UniProt P62995) 1
THOC1 (UniProt Q96FV9) 1
U2AF1L5 1

Next part:

dose-dependent thermal stabilisation call, inactive:
TSR3 (UniProt Q9UJK0) 0
THNSL1 (UniProt Q8IYQ7) 0
TRAF6 (UniProt Q9Y4K3) 0
TRAPPC11 (UniProt Q7Z392) 0
TXLNA (UniProt P40222) 0
TRIM33 (UniProt Q9UPN9) 0
TBCA (UniProt O75347) 0
TOR1AIP1 (UniProt Q5JTV8) 0
TBC1D5 (UniProt Q92609) 0
TSPYL5 (UniProt Q86VY4) 0
TMED8 (UniProt Q6PL24) 0
TRAPPC5 (UniProt Q8IUR0) 0
TMOD3 (UniProt Q9NYL9) 0
TXNL4A (UniProt P83876) 0
UBA52 (UniProt P62987) 0
TNFAIP8 (UniProt O95379) 0
TTC39C (UniProt Q8N584) 0
TP53BP1 (UniProt Q12888) 0
THUMPD3 (UniProt Q9BV44) 0
TIA1 (UniProt P31483) 0
THOP1 (UniProt P52888) 0
TPM4 (UniProt P67936) 0
TATDN3 (UniProt Q17R31) 0
TSC22D2 (UniProt O75157) 0
TCOF1 (UniProt Q13428) 0
TCP11L1 (UniProt Q9NUJ3) 0
TNRC6A (UniProt Q8NDV7) 0
TNKS1BP1 (UniProt Q9C0C2) 0
TRAF2 (UniProt Q12933) 0
TPX2 (UniProt Q9ULW0) 0
TLE3 (UniProt Q04726) 0
TMA16 (UniProt Q96EY4) 0

Reference: the supplement of paper PMC7666118
